In PubChem BioAssay AID330 (DTP/NCI, 2004):
The list shows only some results of the screen, not a fair sample: it is rich in T/C values a quarter to a half above the control, in often repeated tests (any T/C) and in doses without a T/C. Further doses and runs are listed elsewhere. T/C: endpoint of the treated group in % of that of the vehicle group. Some entries give survivors of the animals treated and no T/C: the source holds a T/C of zero for them, seemingly a mark for toxic or unscored doses. Some survivor counts are full or nearly so, which does not show that the dose was tolerated: survival well below the control is almost never listed, so the zero probably covers shortened survival too. Counts of survivors are from the toxicity check (mostly the fifth day) where no day follows; animals may have died later. Schedules are NCI's codes, taken here to give the interval after Q, in days (D) or hours (H), and the number of doses after X. Signs of the kind (2×) stand for listed records that agree. Some entries hold several experiments; their values stand side by side, smallest first. For survival time, this PubChem deposit counts one and a half times the control or more as active, and values a quarter to a half above the control carry no call in these data; other NCI protocols may use other cut-offs. Some T/C values are followed by the survivors on the day toxicity was checked, most often the fifth; without a count, all were alive then.

System: P388 leukemia ip, CD2F1 mice, survival T/C
Test: NCI In Vivo Anticancer Drug Screen. Data for tumor model P388 Leukemia (intraperitoneal) in CD2F1 (CDF1) mice
Details: T/C endpoint: median survival time, higher T/C = longer survival
[1] = dose: 100.0 mg/kg/injection, schedule: Q01DX005 (ip), vehicle: Klucel (hydroxypropylcellulose) (HPC)
[2] = dose: 200.0 mg/kg/injection, schedule: Q01DX005 (ip), vehicle: Klucel (hydroxypropylcellulose) (HPC)
[3] = dose: 50.0 mg/kg/injection, schedule: Q01DX009 (ip), vehicle: saline
[4] = dose: 100.0 mg/kg/injection, schedule: Q01DX009 (ip), vehicle: saline
[5] = dose: 200.0 mg/kg/injection, schedule: Q01DX009 (ip), vehicle: saline
[6] = dose: 240.0 mg/kg/injection, schedule: Q01DX005 (ip), vehicle: Klucel (hydroxypropylcellulose) (HPC)
[7] = dose: 200.0 mg/kg/injection, schedule: Q01DX005 (ip), vehicle: saline
[8] = dose: 200.0 mg/kg/injection, schedule: Q01DX009 (ip), vehicle: saline with Tween-80
[9] = dose: 50.0 mg/kg/injection, schedule: Q01DX009 (ip), vehicle: saline with Tween-80
[10] = dose: 240.0 mg/kg/injection, schedule: Q01DX005 (ip), vehicle: saline with Tween-80
[11] = dose: 240.0 mg/kg/injection, schedule: Q01DX005 (ip), vehicle: saline

O=P(CCP(=O)(c1ccccc1)c1ccccc1)(c1ccccc1)c1ccccc1.[Cl][Sn]([Cl])([c]1ccccc1)[c]1ccccc1
T/C (dose: 3.12 mg/kg/injection, schedule: Q01DX005 (ip), vehicle: Klucel (hydroxypropylcellulose) (HPC)): 128 % of control
T/C (dose: 6.25 mg/kg/injection, schedule: Q01DX005 (ip), vehicle: Klucel (hydroxypropylcellulose) (HPC)): 126 and 131 % of control
survivor count (dose: 12.5 mg/kg/injection, schedule: Q01DX005 (ip), vehicle: Klucel (hydroxypropylcellulose) (HPC)): 1 of 6
survivor count (dose: 50.0 mg/kg/injection, schedule: Q01DX005 (ip), vehicle: Klucel (hydroxypropylcellulose) (HPC)): 2 of 6
survivor count [1]: 0 of 6
survivor count [2]: 0 of 6

O=c1cccccc1O
T/C [3]: 100 % of control [4 of 6 alive]
survivor count [3]: 2 of 6, 3 of 6, 4 of 6
T/C [4]: 99, 100 [5 of 6 alive], 101 [5 of 6 alive], 104 % of control
survivor count [5]: 3 of 6
survivor count (dose: 400.0 mg/kg/injection, schedule: Q01DX009 (ip), vehicle: saline): 0 of 6

CC(C)(C)OC(=O)CNC(=O)C(Cc1ccccc1)NC(=O)C(CSC(c1ccccc1)(c1ccccc1)c1ccccc1)NC(=O)CNC(=O)C(Cc1ccccc1)NC(=O)CNC(=O)C(CSC(c1ccccc1)c1ccccc1)NC(=O)C(CSC(c1ccccc1)(c1ccccc1)c1ccccc1)NC(=O)OCc1ccccc1 (centres undefined)
survivor count [6]: 6 of 6

CC(=O)OCC#CCN1CCCCCC1
survivor count [7]: 0 of 6

Cc1ccc2[nH]cc(C3CCCN4CCCCC34)c2c1 (centres undefined)
survivor count (dose: 180.0 mg/kg/injection, schedule: Q01DX001 (ip), vehicle: saline with Tween-80): 0 of 6
survivor count (dose: 360.0 mg/kg/injection, schedule: Q01DX001 (ip), vehicle: saline with Tween-80): 0 of 6

CCN(C)c1cc(=O)c2ccc3ccccc3c2o1
survivor count [8]: 3 of 6

COc1cc(N(CCCl)CCCl)c(OC)cc1/C=N\Nc1nncn1N
T/C (dose: 0.62 mg/kg/injection, schedule: Q01DX009 (ip), vehicle: saline): 140 % of control
T/C (dose: 1.0 mg/kg/injection, schedule: Q01DX009 (ip), vehicle: saline): 136 % of control

C=C1C(=O)OC2C1C(OC(=O)/C(C)=C/CO)C/C(C)=C/CCC1(CO)OC21 (centres undefined)
T/C (dose: 2.0 mg/kg/injection, schedule: Q01DX009 (ip), vehicle: Klucel (hydroxypropylcellulose) (HPC)): 125 % of control

O=C1CSC(=O)N1c1ccc(Cl)c(Cl)c1
survivor count [8]: 5 of 6

COc1cc(OC)c(C(=O)CCl)c(O)c1Cl
T/C [9]: 127 % of control
T/C (dose: 100.0 mg/kg/injection, schedule: Q01DX009 (ip), vehicle: saline with Tween-80, evaluated on day 20): 140 % of control
T/C (dose: 100.0 mg/kg/injection, schedule: Q01DX009 (ip), vehicle: saline with Tween-80, evaluated on day 30): 130 % of control
survivor count (dose: 150.0 mg/kg/injection, schedule: Q01DX009 (ip), vehicle: saline with Tween-80): 3 of 6

C[C@]12CC[C@@H](OC(=O)N(CCCl)N=O)C[C@@H]1CC[C@@H]1[C@@H]2CC[C@]2(C)C(=O)CC[C@@H]12
T/C (dose: 62.5 mg/kg/injection, schedule: Q04DX003 (ip), vehicle: saline): 134 % of control
survivor count (dose: 100.0 mg/kg/injection, schedule: Q01DX009 (ip), vehicle: other): 4 of 6
T/C (dose: 250.0 mg/kg/injection, schedule: Q04DX003 (ip), vehicle: saline): 126 % of control

CCc1ccccc1NC(=O)C(C#N)C1=C(Cl)C(=O)c2ccccc2C1=O (centres undefined)
survivor count [10]: 1 of 6

Cc1cccc(N)n1
survivor count [3]: 0 of 6
survivor count [4]: 0 of 6
survivor count [5]: 0 of 6

CCn1c(C)nc2c(N)cc(C(F)(F)F)cc21 (tested in a mixture with another compound)
survivor count [6]: 0 of 6

CCCCN(CCCC)CCOc1c[nH]c(=O)[nH]c1=O
survivor count [2]: 0 of 5

O=C1NC(=O)C(Cc2ccc(N(CCO)CCO)cc2)(c2ccccc2)N1 (centres undefined)
T/C [1]: 126 % of control
T/C [2]: 131 % of control

CCOC(=O)N(C)N=NC
T/C (dose: 15.0 mg/kg/injection, schedule: Q01DX005 (ip), vehicle: saline): 133 % of control
T/C (dose: 30.0 mg/kg/injection, schedule: Q01DX005 (ip), vehicle: saline): 126 % of control
survivor count (dose: 60.0 mg/kg/injection, schedule: Q01DX005 (ip), vehicle: saline): 6 of 6
survivor count (dose: 120.0 mg/kg/injection, schedule: Q01DX005 (ip), vehicle: saline): 0 of 6
survivor count [11]: 0 of 6

C/C(=N\NC(=S)N1CC2CCC(CC2)C1)c1ccccn1
T/C (dose: 6.25 mg/kg/injection, schedule: Q01DX009 (ip), vehicle: Klucel (hydroxypropylcellulose) (HPC)): 126 % of control [5 of 6 alive]
survivor count (dose: 12.5 mg/kg/injection, schedule: Q01DX009 (ip), vehicle: Klucel (hydroxypropylcellulose) (HPC)): 6 of 6
survivor count (dose: 25.0 mg/kg/injection, schedule: Q01DX009 (ip), vehicle: Klucel (hydroxypropylcellulose) (HPC)): 6 of 6
survivor count (dose: 50.0 mg/kg/injection, schedule: Q01DX009 (ip), vehicle: Klucel (hydroxypropylcellulose) (HPC)): 0 of 6
survivor count (dose: 100.0 mg/kg/injection, schedule: Q01DX009 (ip), vehicle: Klucel (hydroxypropylcellulose) (HPC)): 0 of 6
survivor count (dose: 200.0 mg/kg/injection, schedule: Q01DX009 (ip), vehicle: Klucel (hydroxypropylcellulose) (HPC)): 0 of 6

CC(C)c1ccc(C2NC(C(=O)O)CS2)cc1 (centres undefined)
survivor count (dose: 200.0 mg/kg/injection, schedule: Q01DX009 (ip), vehicle: suspension in saline): 6 of 6

OC1c2ccccc2-c2ccccc2C1O (centres undefined)
survivor count (dose: 400.0 mg/kg/injection, schedule: Q04DX002 (ip), vehicle: saline with Tween-80): 2 of 6
survivor count (dose: 800.0 mg/kg/injection, schedule: Q04DX002 (ip), vehicle: saline with Tween-80): 1 of 6 and 2 of 5

CC(C)[C@H](N)C(=O)NCCNC(=O)[C@@H](N)C(C)C
survivor count [11]: 5 of 6

CCCCCCC(=O)/C=C/c1cc(OC)ccc1OC
T/C [9]: 135 % of control

CN(C)C(=O)c1nc(CNC(=O)CN)n(-c2ccc(Cl)cc2C(=O)c2ccccc2)n1
survivor count [6]: 3 of 6

CC(=O)OCC1OC(OC(C)=O)C(N(CCCl)CCCl)C(OC(C)=O)C1OC(C)=O (centres undefined)
survivor count (dose: 5.0 mg/kg/injection, schedule: Q01DX005 (ip), vehicle: distilled water + Tween-80): 5 of 5
survivor count (dose: 10.0 mg/kg/injection, schedule: Q01DX005 (ip), vehicle: distilled water + Tween-80): 4 of 5
survivor count (dose: 20.0 mg/kg/injection, schedule: Q01DX005 (ip), vehicle: distilled water + Tween-80): 1 of 5
survivor count (dose: 40.0 mg/kg/injection, schedule: Q01DX005 (ip), vehicle: distilled water + Tween-80): 0 of 5

CC(C)OC1CC(C)(O)Cc2cc3c(c(O)c21)C(=O)c1c(O)cc2c(c1C3=O)OC1OC2(C)C(O)C(N(C)C)C1O (centres undefined)
survivor count (dose: 32.0 mg/kg/injection, schedule: Q01DX009 (ip), vehicle: other): 0 of 6

CCN(CC)C(=O)N1C=CC(C)C=C1
survivor count [10]: 1 of 6

C=C=C(COC(C)=O)ON1CCCCC1
survivor count [7]: 0 of 6

Cc1ccc(N)c(O)c1
survivor count (dose: 600.0 mg/kg/injection, schedule: Q01DX009 (ip), vehicle: saline): 2 of 6

COc1cc2c(C)c[n+]3cc4cc5c(OC)c(OC)ccc5cc4cc3c2cc1OC (tested in a mixture with another compound)
survivor count (dose: 50.0 mg/kg/injection, schedule: Q04DX003 (ip), vehicle: distilled water + Tween-80): 1 of 6

O=C1SC(=NC2CCCCC2)N(C2CCCCC2)/C1=C1\C(=O)SC(=NC2CCCCC2)N1C1CCCCC1
survivor count (dose: 60.0 mg/kg/injection, schedule: Q01DX005 (ip), vehicle: saline with Tween-80): 6 of 6 (2×)
survivor count (dose: 120.0 mg/kg/injection, schedule: Q01DX005 (ip), vehicle: saline with Tween-80): 6 of 6
survivor count [10]: 6 of 6
